Results published in paper doi:10.1101/564799.
No constants are given. Whether binding was seen depends on the method and setting. Some binding calls cover weakened binding; strength is not graded here.

Protein sequences, listed by entry. Tags and fused reporters are not part of them.
UniProt Q96FX7, whole entry: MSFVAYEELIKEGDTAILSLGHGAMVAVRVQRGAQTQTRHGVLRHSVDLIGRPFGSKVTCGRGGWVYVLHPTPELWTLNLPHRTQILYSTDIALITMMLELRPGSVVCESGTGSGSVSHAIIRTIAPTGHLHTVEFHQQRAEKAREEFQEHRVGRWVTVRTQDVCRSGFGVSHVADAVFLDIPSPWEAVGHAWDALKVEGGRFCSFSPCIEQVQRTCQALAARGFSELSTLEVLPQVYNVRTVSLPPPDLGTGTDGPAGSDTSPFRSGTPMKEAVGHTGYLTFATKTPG

Target: TRMT61A (subunit of the recombinant human TRMT6/61A dimer) (human) (UniProt Q96FX7)
Assay: co-purification

B1: TRMT6 (subunit of the recombinant human TRMT6/61A dimer) (protein, UniProt Q9UJA5 1-497)
chain: MEGSGEQPGPQPQHPGDHRIRDGDFVVLKREDVFKAVQVQRRKKVTFEKQWFYLDNVIGHSYGTAFEVTSGGSLQPKKKREEPTAETKEAGTDNRNIVDDGKSQKLTQDDIKALKDKGIKGEEIVQQLIENSTTFRDKTEFAQDKYIKKKKKKYEAIITVVKPSTRILSIMYYAREPGKINHMRYDTLAQMLTLGNIRAGNKMIVMETCAGLVLGAMMERMGGFGSIIQLYPGGGPVRAATACFGFPKSFLSGLYEFPLNKVDSLLHGTFSAKMLSSEPKDSALVEESNGTLEEKQASEQENEDSMAEAPESNHPEDQETMETISQDPEHKGPKERGSKKDYIQEKQRRQEEQRKRHLEAAALLSERNADGLIVASRFHPTPLLLSLLDFVAPSRPFVVYCQYKEPLLECYTKLRERGGVINLRLSETWLRNYQVLPDRSHPKLLMSGGGGYLLSGFTVAMDNLKADTSLKSNASTLESHETEEPAAKKRKCPESDS
B1 was tested. Which binding did it give?
The binding was “binds”.
